Source: patent US20120027779A1
These are yes or no findings as the source states them, for the method shown. Some results given as binding are weak or reduced against the parent protein; the word gives no strength.

Chains of the proteins cited; added tags and fusions are not shown. Residues count along the entry.
UniProt O60462, residues 21-931: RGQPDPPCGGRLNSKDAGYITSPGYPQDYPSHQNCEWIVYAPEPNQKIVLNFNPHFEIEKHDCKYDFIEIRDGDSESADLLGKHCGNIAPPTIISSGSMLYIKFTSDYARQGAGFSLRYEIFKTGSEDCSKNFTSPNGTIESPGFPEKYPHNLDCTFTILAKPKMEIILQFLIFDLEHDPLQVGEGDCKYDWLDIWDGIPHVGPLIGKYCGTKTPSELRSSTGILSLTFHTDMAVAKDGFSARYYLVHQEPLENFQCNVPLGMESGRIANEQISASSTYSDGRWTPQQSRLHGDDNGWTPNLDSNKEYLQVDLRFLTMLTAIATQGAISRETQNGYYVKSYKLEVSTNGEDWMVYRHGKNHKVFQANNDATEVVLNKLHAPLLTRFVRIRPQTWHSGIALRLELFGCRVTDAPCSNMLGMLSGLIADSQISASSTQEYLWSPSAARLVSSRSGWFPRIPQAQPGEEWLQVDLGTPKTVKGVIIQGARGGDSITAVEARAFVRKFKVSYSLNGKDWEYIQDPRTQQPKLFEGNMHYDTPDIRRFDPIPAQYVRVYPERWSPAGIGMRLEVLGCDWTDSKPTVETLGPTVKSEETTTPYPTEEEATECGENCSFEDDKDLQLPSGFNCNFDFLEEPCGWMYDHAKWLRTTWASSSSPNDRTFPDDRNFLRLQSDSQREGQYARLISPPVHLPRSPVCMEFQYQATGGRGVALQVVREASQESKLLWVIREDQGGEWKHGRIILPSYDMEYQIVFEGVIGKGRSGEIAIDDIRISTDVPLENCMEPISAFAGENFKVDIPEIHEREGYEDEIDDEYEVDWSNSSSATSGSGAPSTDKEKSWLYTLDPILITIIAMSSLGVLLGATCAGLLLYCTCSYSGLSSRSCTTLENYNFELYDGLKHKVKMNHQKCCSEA

Columns and labels:
[1] = biological target: human neuropilin-2 (human) (UniProt O60462); experiment: flow cytometry screening of hybridomas on cell lines expressing or not expressing neuropilin-2
[2] = biological target: human neuropilin-2 (human) (UniProt O60462); experiment: flow cytometry, 5 µg/ml antibody on P815-NRP-2 and HT29-NRP-2 cells versus P815 and HT29 cells

B1: ITAC-B2 anti-human neuropilin-2 monoclonal antibody (antibody, V domains shown)
VH: EVQLEESGGGLVKPGGSLKLSCAASGFTFSDYYMYWVRQTPEKRLEWVATISDGGSYTYYPDSIKGRFTISRDNARNNLYLQMSSLKSEDTAMYYCARGGPYRSWFAFWGQGTLVTVSA
VL: DIVITQTPLSLPVSLGDQASISCRSSQSIVYSNGNTYLEWYLQKPGQSPKLLIYKVSNRFSGVPDRFSGSGSGTDFTLKISRVEAEDLGVYYCFQGSHVPPTFGGGTKLEIK
With B1 the binding [1] was “binds” and the binding [2] was “binds”.
